Values of other authors as cited in US20220016196A1, “Aloe Based Compositions Comprising Polysaccharides and Polyphenols for Regulation of Homeostasis of Immunity” (Unigen, Inc., priority 2020, published 2022).
At least one compound was matched to its structure with a doubt left.

Tested on: acute ear edema induced by tetradecanoyl phorbol acetate (TPA)
Details: acute ear edema induced by TPA (Cuellar et al 1997); cited from earlier work

In the case of `C=C(CC[C@@H](C(=O)O)[C@H]1[C@H](O)C[C@@]2(C)C3=C(CC[C@]12C)[C@@]1(C)CC[C@H](OC(C)=O)C(C)(C)[C@@H]1CC3)C(C)C` [Pachymic acid], the IC50 is given as 4.7 nmol/ear.
